Results are given in words; binding and its absence hold for the method and conditions named.

By UniProt entry, the sequences of proteins in these tests, tags left out. Residues count along the entry.
UniProt P02701, residues 25-152: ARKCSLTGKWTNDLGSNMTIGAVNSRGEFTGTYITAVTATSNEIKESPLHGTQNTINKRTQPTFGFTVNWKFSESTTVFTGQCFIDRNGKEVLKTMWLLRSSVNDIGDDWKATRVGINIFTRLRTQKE

Assay [1] has as its target Avidin (obtained from egg white) (UniProt P02701). Description: electrochemical impedance spectroscopy; MWCNT-Av on glassy carbon electrode, incubated with bLOx or LOx; charge transfer resistance of hydroquinone/benzoquinone at 0.050 V, 0.050 M phosphate buffer pH 7.40; both purified.
Assay [2] has the same target. The assay can be described thus: SPR; MWCNT-Av deposited on a gold disk; 0.50 mg mL^-1 bLOx or LOx injected manually, batch conditions, 25 °C; amount from the change of the resonance angle after washing with phosphate buffer; both purified.

B1: non-biotinylated lactate oxidase (enzyme, UniProt Q44467 1-374)
chain: MNNNDIEYNAPSEIKYIDVVNTYDLEEEASKVVPHGGFNYIAGASGDEWTKRANDRAWKHKLLYPRLAQDVEAPDTSTEILGHKIKAPFIMAPIAAHGLAHTTKEAGTARAVSEFGTIMSISAYSGATFEEISEGLNGGPRWFQIYMAKDDQQNRDILDEAKSDGATAIILTADSTVSGNRDRDVKNKFVYPFGMPIVQRYLRGTAEGMSLNNIYGASKQKISPRDIEEIAGHSGLPVFVKGIQHPEDADMAIKRGASGIWVSNHGARQLYEAPGSFDTLPAIAERVNKRVPIVFDSGVRRGEHVAKALASGADVVALGRPVLFGLALGGWQGAYSVLDYFQKDLTRVMQLTGSQNVEDLKGLDLFDNPYGYEY
For B1, the binding entry in assay [1] was “no binding”; in assay [2], “no binding (tested: 0.50 mg mL^-1)”.

These data come from publication PMC11048174.
